Test results: article doi:10.1101/2024.03.12.584494
Where two headings read alike, the source gives them in different places. Results are given in words; binding and its absence hold for the method and conditions named. Binding seen in cells or lysates may run through a third protein. Some entries that bind do so weakly or less than the wild type.

The chains behind the UniProt entries cited, without tags or fusion partners. Residues count along the entry.
UniProt Q62083: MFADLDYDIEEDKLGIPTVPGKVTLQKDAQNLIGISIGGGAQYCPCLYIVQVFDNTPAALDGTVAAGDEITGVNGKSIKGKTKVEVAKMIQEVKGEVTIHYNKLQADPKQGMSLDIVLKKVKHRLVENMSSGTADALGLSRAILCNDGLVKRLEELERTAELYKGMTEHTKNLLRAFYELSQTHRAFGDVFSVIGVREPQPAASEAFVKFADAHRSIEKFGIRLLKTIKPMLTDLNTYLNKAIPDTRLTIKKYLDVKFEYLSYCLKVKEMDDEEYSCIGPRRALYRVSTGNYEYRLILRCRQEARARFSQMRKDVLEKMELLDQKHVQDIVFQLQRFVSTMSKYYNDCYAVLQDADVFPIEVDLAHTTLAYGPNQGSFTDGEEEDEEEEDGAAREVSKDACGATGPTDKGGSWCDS
UniProt Q5SXA9: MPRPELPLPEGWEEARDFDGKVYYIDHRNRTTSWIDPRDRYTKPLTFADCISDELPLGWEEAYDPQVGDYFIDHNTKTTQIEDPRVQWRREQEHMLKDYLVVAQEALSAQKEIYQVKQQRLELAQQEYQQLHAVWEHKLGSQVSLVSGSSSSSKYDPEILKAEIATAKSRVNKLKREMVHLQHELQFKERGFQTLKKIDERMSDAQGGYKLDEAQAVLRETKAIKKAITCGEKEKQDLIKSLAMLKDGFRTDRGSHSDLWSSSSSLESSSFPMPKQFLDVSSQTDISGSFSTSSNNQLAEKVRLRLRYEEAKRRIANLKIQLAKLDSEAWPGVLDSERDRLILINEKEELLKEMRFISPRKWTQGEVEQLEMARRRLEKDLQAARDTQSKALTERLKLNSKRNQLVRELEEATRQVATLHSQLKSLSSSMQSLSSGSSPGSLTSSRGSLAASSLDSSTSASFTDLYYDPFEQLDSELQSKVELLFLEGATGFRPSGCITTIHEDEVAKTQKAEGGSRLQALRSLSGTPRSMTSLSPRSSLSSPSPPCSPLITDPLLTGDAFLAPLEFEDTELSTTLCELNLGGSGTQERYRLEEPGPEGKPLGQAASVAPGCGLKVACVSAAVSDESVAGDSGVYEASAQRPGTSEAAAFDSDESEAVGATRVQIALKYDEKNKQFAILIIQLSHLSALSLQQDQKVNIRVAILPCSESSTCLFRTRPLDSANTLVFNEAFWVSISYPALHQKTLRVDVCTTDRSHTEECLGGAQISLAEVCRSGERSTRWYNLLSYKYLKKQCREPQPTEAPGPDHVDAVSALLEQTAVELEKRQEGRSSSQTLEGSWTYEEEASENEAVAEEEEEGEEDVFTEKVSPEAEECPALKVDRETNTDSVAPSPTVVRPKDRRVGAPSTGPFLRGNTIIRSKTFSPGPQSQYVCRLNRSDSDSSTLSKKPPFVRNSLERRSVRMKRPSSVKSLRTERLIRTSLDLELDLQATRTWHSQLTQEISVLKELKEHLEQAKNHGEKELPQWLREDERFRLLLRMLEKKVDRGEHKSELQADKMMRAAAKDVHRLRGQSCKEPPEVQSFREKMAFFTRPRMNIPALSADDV
UniProt P19491, residues 22-883: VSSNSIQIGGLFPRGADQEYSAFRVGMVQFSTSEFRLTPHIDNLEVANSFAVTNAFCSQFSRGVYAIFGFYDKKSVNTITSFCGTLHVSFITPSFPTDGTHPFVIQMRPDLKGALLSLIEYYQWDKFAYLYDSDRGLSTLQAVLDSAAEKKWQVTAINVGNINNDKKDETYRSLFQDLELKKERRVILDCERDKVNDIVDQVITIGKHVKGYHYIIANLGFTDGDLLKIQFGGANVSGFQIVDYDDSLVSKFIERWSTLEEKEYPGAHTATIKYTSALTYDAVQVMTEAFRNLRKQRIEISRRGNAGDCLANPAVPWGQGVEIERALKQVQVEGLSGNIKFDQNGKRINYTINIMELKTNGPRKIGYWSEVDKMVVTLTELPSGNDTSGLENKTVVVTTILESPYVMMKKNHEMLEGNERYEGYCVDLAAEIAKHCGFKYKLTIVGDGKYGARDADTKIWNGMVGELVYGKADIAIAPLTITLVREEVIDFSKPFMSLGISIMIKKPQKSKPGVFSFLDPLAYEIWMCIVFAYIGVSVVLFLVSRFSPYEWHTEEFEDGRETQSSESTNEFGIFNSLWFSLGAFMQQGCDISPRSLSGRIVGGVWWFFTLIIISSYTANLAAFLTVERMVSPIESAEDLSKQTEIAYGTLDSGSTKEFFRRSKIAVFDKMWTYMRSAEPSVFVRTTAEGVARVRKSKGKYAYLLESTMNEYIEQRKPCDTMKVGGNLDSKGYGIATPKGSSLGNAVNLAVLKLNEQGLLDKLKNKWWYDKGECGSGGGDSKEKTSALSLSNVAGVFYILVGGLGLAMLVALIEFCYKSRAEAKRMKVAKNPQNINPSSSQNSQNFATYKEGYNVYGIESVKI

What was measured:
Assay in all cases: co-IP
mGFP-PICK1 WT (mouse) [1] = target: mGFP-PICK1 WT (mouse) (UniProt Q62083)
mGFP-PICK1 WT (mouse) [2] = target: mGFP-PICK1 WT (mouse) (UniProt Q62083); remark: listed apart in the source
mCherry-PICK1 WT (mouse) = mCherry-PICK1 WT (mouse) (UniProt Q62083)
mGFP-KIBRA WT (mouse) = mGFP-KIBRA WT (mouse) (UniProt Q5SXA9)
mCherry-KIBRA WT (mouse) [3] = target: mCherry-KIBRA WT (mouse) (UniProt Q5SXA9)
mCherry-KIBRA WT (mouse) [4] = target: mCherry-KIBRA WT (mouse) (UniProt Q5SXA9); remark: listed apart in the source

Myc-GluA2 (from UniProt P19491 22-883) (receptor)
binding (mGFP-PICK1 WT (mouse) [1]): binds | binding (mGFP-PICK1 WT (mouse) [2]): binds

Myc-KIBRA WT (from UniProt Q5SXA9 1-1104)
binding (mCherry-PICK1 WT (mouse)): binds

mCherry-KIBRA WT (from UniProt Q5SXA9 1-1104)
binding (mGFP-PICK1 WT (mouse) [1]): binds

mGFP-KIBRA WT (from UniProt Q5SXA9 1-1104)
binding (mGFP-KIBRA WT (mouse)): binds | binding (mCherry-PICK1 WT (mouse)): binds

mGFP-PICK1 WT (from UniProt Q62083 1-416)
binding (mCherry-KIBRA WT (mouse) [3]): binds | binding (mCherry-KIBRA WT (mouse) [4]): binds
